Laboratory results taken from the supplement of paper PMC8728848.
This is one part of the list.

Tests used:
Experiment in all cases: glycan array binding signal (z-score within array); higher = stronger binding
Conditions in all cases: glycan notation: IUPAC condensed, linker removed
[1] = target: Gal(a1-3)[Gal(a1-4)]Gal(b1-4)GlcNAc
Method in brief: (§1)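 The binding signal is a Z-score computed within each array. Data were drawn from 3228 arrays in the Consortium for Functional Glycomics database, restricted to those with a known protein sequence. Scores were averaged over arrays of the same protein sequence at different concentrations or buffers, and over linkers, and negative values can be taken as non-binding.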

[2] = target: Gal(a1-4)Gal(b1-3)GlcNAc(b1-2)Man(a1-3)[Gal(a1-4)Gal(b1-3)GlcNAc(b1-2)Man(a1-6)]Man(b1-4)GlcNAc(b1-4)GlcNAc
Method in brief: as §1

Gal(a1-4)Gal(b1-4)Glc = target: Gal(a1-4)Gal(b1-4)Glc
Method in brief: as §1

Gal(a1-4)Gal(b1-4)GlcNAc = target: Gal(a1-4)Gal(b1-4)GlcNAc
Method in brief: as §1

[3] = target: Gal(a1-4)Gal(b1-4)GlcNAc(b1-2)Man(a1-3)[Gal(a1-4)Gal(b1-4)GlcNAc(b1-2)Man(a1-6)]Man(b1-4)GlcNAc(b1-4)GlcNAc
Method in brief: as §1

[4] = target: Gal(a1-4)Gal(b1-4)GlcNAc(b1-3)Gal(b1-4)Glc
Method in brief: as §1

Gal(a1-4)GlcNAc = target: Gal(a1-4)GlcNAc
Method in brief: as §1

Gal(a1-6)Glc = target: Gal(a1-6)Glc
Method in brief: as §1

Gal(b1-2)Gal = target: Gal(b1-2)Gal
Method in brief: as §1

Gal(b1-3)Gal = target: Gal(b1-3)Gal
Method in brief: as §1

Gal(b1-3)Gal(b1-4)GlcNAc = target: Gal(b1-3)Gal(b1-4)GlcNAc
Method in brief: as §1

Gal(b1-3)GalNAc = target: Gal(b1-3)GalNAc
Method in brief: as §1

[5] = target: Gal(b1-3)GalNAc(a1-3)[Fuc(a1-2)]Gal(b1-4)Glc
Method in brief: as §1

[6] = target: Gal(b1-3)GalNAc(a1-3)[Fuc(a1-2)]Gal(b1-4)GlcNAc
Method in brief: as §1

Gal(b1-3)GalNAc(b1-3)Gal = target: Gal(b1-3)GalNAc(b1-3)Gal
Method in brief: as §1

[7] = target: Gal(b1-3)GalNAc(b1-3)Gal(a1-4)Gal(b1-4)Glc
Method in brief: as §1

[8] = target: Gal(b1-3)GalNAc(b1-4)Gal(b1-4)Glc
Method in brief: as §1

[9] = target: Gal(b1-3)GalNAc(b1-4)[Neu5Ac(a2-3)]Gal(b1-4)Glc
Method in brief: as §1

Gal(b1-3)GlcNAc = target: Gal(b1-3)GlcNAc
Method in brief: as §1

[10] = target: Gal(b1-3)GlcNAc(a1-3)Gal(b1-4)GlcNAc
Method in brief: as §1

[11] = target: Gal(b1-3)GlcNAc(a1-6)Gal(b1-4)GlcNAc
Method in brief: as §1

Gal(b1-3)GlcNAc(b1-2)Man = target: Gal(b1-3)GlcNAc(b1-2)Man
Method in brief: as §1

[12] = target: Gal(b1-3)GlcNAc(b1-2)Man(a1-3)[Gal(b1-3)GlcNAc(b1-2)Man(a1-6)]Man(b1-4)GlcNAc(b1-4)GlcNAc
Method in brief: as §1

[13] = target: Gal(b1-3)GlcNAc(b1-2)Man(a1-3)[Gal(b1-3)GlcNAc(b1-2)Man(a1-6)]Man(b1-4)GlcNAc(b1-4)[Fuc(a1-6)]GlcNAc
Method in brief: as §1

[14] = target: Gal(b1-3)GlcNAc(b1-2)Man(a1-3)[GlcNAc(b1-4)][Gal(b1-3)GlcNAc(b1-2)Man(a1-6)]Man(b1-4)GlcNAc(b1-4)GlcNAc
Method in brief: as §1

[15] = target: Gal(b1-3)GlcNAc(b1-2)[Gal(b1-3)GlcNAc(b1-6)]Man(a1-6)[Gal(b1-3)GlcNAc(b1-2)Man(a1-3)]Man(b1-4)GlcNAc(b1-4)GlcNAc
Method in brief: as §1

[16] = target: Gal(b1-3)GlcNAc(b1-3)Gal(b1-3)GlcNAc
Method in brief: as §1

[17] = target: Gal(b1-3)GlcNAc(b1-3)Gal(b1-4)Glc
Method in brief: as §1

[18] = target: Gal(b1-3)GlcNAc(b1-3)Gal(b1-4)GlcNAc
Method in brief: as §1

[19] = target: Gal(b1-3)GlcNAc(b1-3)Gal(b1-4)GlcNAc(b1-2)Man(a1-3)[Gal(b1-3)GlcNAc(b1-3)Gal(b1-4)GlcNAc(b1-2)Man(a1-6)]Man(b1-4)GlcNAc(b1-4)GlcNAc
Method in brief: as §1

[20] = target: Gal(b1-3)GlcNAc(b1-3)Gal(b1-4)GlcNAc(b1-2)[Gal(b1-3)GlcNAc(b1-3)Gal(b1-4)GlcNAc(b1-6)]Man(a1-6)[Gal(b1-3)GlcNAc(b1-3)Gal(b1-4)GlcNAc(b1-2)Man(a1-3)]Man(b1-4)GlcNAc(b1-4)[Fuc(a1-6)]GlcNAc
Method in brief: as §1

[21] = target: Gal(b1-3)GlcNAc(b1-3)Gal(b1-4)GlcNAc(b1-3)Gal(b1-4)GlcNAc(b1-2)[Gal(b1-3)GlcNAc(b1-3)Gal(b1-4)GlcNAc(b1-3)Gal(b1-4)GlcNAc(b1-6)]Man(a1-6)[Gal(b1-3)GlcNAc(b1-3)Gal(b1-4)GlcNAc(b1-3)Gal(b1-4)GlcNAc(b1-2)Man(a1-3)]Man(b1-4)GlcNAc(b1-4)[Fuc(a1-6)]GlcNAc
Method in brief: as §1

[22] = target: Gal(b1-3)GlcNAc(b1-3)Gal(b1-4)GlcNAc(b1-6)[Gal(b1-3)GlcNAc(b1-3)]Gal(b1-4)Glc
Method in brief: as §1

[23] = target: Gal(b1-3)GlcNAc(b1-3)Gal(b1-4)[Fuc(a1-3)]GlcNAc
Method in brief: as §1

[24] = target: Gal(b1-3)GlcNAc(b1-3)Gal(b1-4)[Fuc(a1-3)]GlcNAc(b1-6)[Gal(b1-3)GlcNAc(b1-3)]Gal(b1-4)Glc
Method in brief: as §1

[25] = target: Gal(b1-3)GlcNAc(b1-3)GalNAc
Method in brief: as §1

[26] = target: Gal(b1-3)GlcNAc(b1-6)Gal(b1-4)GlcNAc
Method in brief: as §1

[27] = target: Gal(b1-3)GlcNAc(b1-6)GalNAc
Method in brief: as §1

B1: GS7807G-bfa-506-18-506 (Bacteroides fragilis) (protein)
chain: ASCDKFDEINTDPDATTKVTSSLLATGLLLDITSSSASKSFIYDELLAKQMAWGESMEDYQYNVFGRSGFGGYTTLINAQKMVESVSDDNVNAYDGLAHFIKAYKIFYMSMEMGDLPYEEALQGELGLVRPKYNTQKEVMNFILSDLETAYELFSTAKDFDGDPILGGSISKWKKATTAFQLKVLMHLSKKESDADLKVKERFARIVASGSLMESNEDNLQMKYADKANTVYPFHNTNTKHAGYAMLSTMLIDKFKATGDIRMFYYAKPAKAKLNEGVTADSWDAYIGTDPSLPFEQIEKAYATEQYSGFNARYTDYPSGEPVVRLGYAEQNFILAEAAVRGWISGDASAYYKKAIRAHMEFIASNTPDEEVYHHGHPITEEAIAAFLETPAIQLSGEKEEDIEKILTQRYLASFMQHPYDVYYDYRRTGYPVLPINPATNRNTMNDRLPMRWMYPKSESDYNLEHQNEALERQFGGVDDVNKLMWILQ
- glycan array binding signal (z-score) [1]: 1.77
- glycan array binding signal (z-score) [2]: 1.08
- glycan array binding signal (z-score) (Gal(a1-4)Gal(b1-4)Glc): 0.636
- glycan array binding signal (z-score) (Gal(a1-4)Gal(b1-4)GlcNAc): 0.104
- glycan array binding signal (z-score) [3]: 1.29
- glycan array binding signal (z-score) [4]: 0.105
- glycan array binding signal (z-score) (Gal(a1-4)GlcNAc): -0.982
- glycan array binding signal (z-score) (Gal(a1-6)Glc): -1.14
- glycan array binding signal (z-score) (Gal(b1-2)Gal): -0.442
- glycan array binding signal (z-score) (Gal(b1-3)Gal): -0.337
- glycan array binding signal (z-score) (Gal(b1-3)Gal(b1-4)GlcNAc): 0.463
- glycan array binding signal (z-score) (Gal(b1-3)GalNAc): -0.079
- glycan array binding signal (z-score) [5]: 0.056
- glycan array binding signal (z-score) [6]: -0.687
- glycan array binding signal (z-score) (Gal(b1-3)GalNAc(b1-3)Gal): -0.588
- glycan array binding signal (z-score) [7]: 1.2
- glycan array binding signal (z-score) [8]: 0.291
- glycan array binding signal (z-score) [9]: 0.38
- glycan array binding signal (z-score) (Gal(b1-3)GlcNAc): -0.507
- glycan array binding signal (z-score) [10]: -0.228
- glycan array binding signal (z-score) [11]: 0.183
- glycan array binding signal (z-score) (Gal(b1-3)GlcNAc(b1-2)Man): -0.124
- glycan array binding signal (z-score) [12]: 2.12
- glycan array binding signal (z-score) [13]: 2.73
- glycan array binding signal (z-score) [14]: 1.08
- glycan array binding signal (z-score) [15]: 0.847
- glycan array binding signal (z-score) [16]: -0.195
- glycan array binding signal (z-score) [17]: -0.106
- glycan array binding signal (z-score) [18]: -0.493
- glycan array binding signal (z-score) [19]: 0.562
- glycan array binding signal (z-score) [20]: 0.928
- glycan array binding signal (z-score) [21]: 2.5
- glycan array binding signal (z-score) [22]: 0.625
- glycan array binding signal (z-score) [23]: -0.23
- glycan array binding signal (z-score) [24]: 1.28
- glycan array binding signal (z-score) [25]: 0.293
- glycan array binding signal (z-score) [26]: -0.013
- glycan array binding signal (z-score) [27]: -0.165
